Experimental data: US20230165846A1, “HETEROCYCLIC GLP-1 AGONISTS” (Gasherbrum Bio, Inc., priority 2020, published 2023)
The match of structure and compound is tentative.

Amino acid sequences for entries named in this document (tags omitted). Residues count along the entry.
UniProt P43220, 24-463 limits assumed: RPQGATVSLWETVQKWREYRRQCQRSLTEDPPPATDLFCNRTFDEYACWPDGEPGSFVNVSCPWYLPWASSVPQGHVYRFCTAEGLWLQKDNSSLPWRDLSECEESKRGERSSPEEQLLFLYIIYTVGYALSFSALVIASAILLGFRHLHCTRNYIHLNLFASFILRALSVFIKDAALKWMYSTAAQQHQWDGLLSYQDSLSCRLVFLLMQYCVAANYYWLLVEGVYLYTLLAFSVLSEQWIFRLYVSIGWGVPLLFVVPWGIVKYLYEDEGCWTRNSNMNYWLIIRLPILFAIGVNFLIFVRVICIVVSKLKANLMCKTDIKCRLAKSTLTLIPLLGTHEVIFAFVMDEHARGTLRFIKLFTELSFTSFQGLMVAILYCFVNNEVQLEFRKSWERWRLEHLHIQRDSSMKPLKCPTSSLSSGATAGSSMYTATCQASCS

How the values were obtained:
GLP-1 Receptor [1] = target: T1, GLP-1 Receptor (Homo sapiens, UniProt P43220); assay: GLP-1R agonist cAMP stimulation assay, Method 1 (DiscoverX CHO-K1, enzyme fragment complementation); conditions: read-out: GLP1R cAMP Stimulation DR: EC50 (nM) Method 1; CHO-K1 cell line (DiscoverX) stably expressing GLP-1 Receptor; incubation 30 or 60 min at 37° C.; geometric mean where n>=2
GLP-1 Receptor [2] = target: T1, GLP-1 Receptor; assay: GLP-1R agonist cAMP stimulation assay, Method 2 (HDB HEK293/GLP1R/CRE-LUC, Cisbio cAMP dynamic 2 kit); conditions: read-out: GLP1R cAMP Stimulation DR: EC50 (nM) Method 2 (HDB); HEK293/GLP1R/CRE-LUC cells (HD Biosciences); 30 min at 37° C.; 0.5 mM IBMX, 0.1% BSA; geometric mean where n>=2

O=C(O)c1ccc2nc(COc3cc(-c4cccc(OCc5ccc(Cl)cc5F)n4)ccn3)n(C[C@@H]3CCO3)c2c1
EC50 (GLP-1 Receptor [1]): 0.77 nM
EC50 (GLP-1 Receptor [2]): 0.54 nM
